Results deposited as PubChem BioAssay AID1224830 (NIAID, 2016).
Purpose: 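Host factors that control LPS-induced TNF expression in human macrophages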 (primary screen). Cell system: human THP-1 monocytic leukaemia cells, TNF dual-luciferase reporter clone, PMA-differentiated to macrophage-like cells. Knock-down reagent: siRNA pool against human genes, 50 nM. Duration: LPS for 4 h, given about 3 days after siRNA transfection. Challenge: bacterial LPS (TLR4 ligand), 10 ng/ml. Detection: 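TNF firefly reporter luminescence divided by renilla, normalised to the plate median, then turned into a robust z-score for each replicate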. Reading the numbers: TNF reporter robust z-score: higher = stronger TNF reporter response to LPS. Rule for the call: 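Each well counts as active if its z-score is over 2.8 or under -1.5; controls are left without a call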.
In all, the deposit lists about 18,000 reagents; this is a random part of them. In the full data, about 2,900 (16%) got an active call. 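Calls are made per well; low scores hint the gene aids the LPS response, high scores that it dampens it.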 Repeated entries: four replicate wells of each siRNA pool.

Which result is listed for C1orf198?
TNF reporter robust z-score: -0.02; outcome: inactive

With C1orf198, how do the results read?
TNF reporter robust z-score: 0.2; outcome: inactive

With C1orf198, what does the deposit list?
TNF reporter robust z-score: -0.6; outcome: inactive

With C1orf198, what does the deposit list?
TNF reporter robust z-score: 0.79; outcome: inactive

With NDOR1, what was measured?
TNF reporter robust z-score: -1.01; outcome: inactive

What did the screen give for NDOR1?
TNF reporter robust z-score: -0.62; outcome: inactive

How did the screen score NDOR1?
TNF reporter robust z-score: -0.69; outcome: inactive

What is on record for NDOR1?
TNF reporter robust z-score: -0.53; outcome: inactive

Not a retest: 3 of the entries above.
C1orf198 → TNF reporter robust z-score: -0.6; outcome: inactive
C1orf198 → TNF reporter robust z-score: 0.79; outcome: inactive
NDOR1 → TNF reporter robust z-score: -1.01; outcome: inactive

The listing continues:
What is on record for HPDL?
TNF reporter robust z-score: -0.08; outcome: inactive

For HPDL, how do the results read?
TNF reporter robust z-score: -0.59; outcome: inactive

How did the screen score HPDL?
TNF reporter robust z-score: -0.43; outcome: inactive

With HPDL, what does the deposit list?
TNF reporter robust z-score: -0.8; outcome: inactive

How did the screen score PHKG1?
TNF reporter robust z-score: -0.56; outcome: inactive

For PHKG1, how do the results read?
TNF reporter robust z-score: 0.18; outcome: inactive

Which result is listed for PHKG1?
TNF reporter robust z-score: -0.57; outcome: inactive

What is on record for PHKG1?
TNF reporter robust z-score: 0.01; outcome: inactive

What did the screen give for PITX2?
TNF reporter robust z-score: -0.52; outcome: inactive

With PITX2, how do the results read?
TNF reporter robust z-score: 0.1; outcome: inactive

Which result is listed for PITX2?
TNF reporter robust z-score: -0.13; outcome: inactive

With PITX2, how do the results read?
TNF reporter robust z-score: -0.99; outcome: inactive
